For this assay, the system named is HeLa cells. Briefly: MTT cytotoxicity assay, HeLa. Format: cell-based. To be noted: Homo sapiens, 72 h incubation. The protocol:
Its cytotoxicity was determined in the human HeLa cervical cancer cell line, the drug-sensitive Colo205 and its resistant counterpart, the ABCB1 expressing Colo320 colon adenocarcinoma cancer cell lines, using the colorimetric 3-(4,5-dimethylthiazol-2-yl)-2,5-diphenyltetrazolium bromide (MTT) test. To investigate the selectivity toward cancer cells, the noncancerous fibroblast CCD-19Lu cell line was included.
The tested compound was dissolved in DMSO to prepare a 5 mM stock solution, which was diluted in complete culture medium, to study the effect of compounds on cell growth of human colonic adenocarcinoma cell lines. Doxorubicin was used as the positive control. The cells were treated with a trypsin-versene (EDTA) solution. Cells were adjusted to a density of 1 × 10^4 cells in 100 μL of the appropriate culture medium and were added to each well, with the exception of the medium control wells. Except for the semiadherent Colo205 and Colo320 cell lines, the other adherent cell lines were seeded 24 h prior to the assay. Then, stock solutions were diluted in the appropriate culture medium, and 2-fold serial dilutions of compounds were prepared in 100 μL of the medium, horizontally. […] Cell growth was determined by measuring the optical density (OD) at 540/630 nm with a Multiscan EX ELISA reader (Thermo Labsystems, Cheshire, WA). […]

`COc1cccc2c1C(=O)c1c(O)c3c(c(O)c1C2=O)C[C@@](O)(C(=O)CO)C[C@@H]3O[C@H]1C[C@H](N)[C@H](O)[C@H](C)O1` [doxorubicin, reference compound] showed an IC50 of 328 ± 49 nM.

By IC50 is commonly meant the concentration needed to halve the response being measured. Low values mean inhibition by little substance, high ones a need for much substance.

Source of the values: PMC12391994, “Synthesis of a fac-Tricarbonylrhenium(I) Complex with Pyrithione, Its Physicochemical Characterization, and Assessment of Biological Effects” (ACS Omega, 2025).
